{"source": "paper PMC5897363", "binders": {"B1": {"name": "IL-12p40 (protein, UniProt P43432 23-335)", "chain": "MWELEKDVYVVEVDWTPDAPGETVNLTCDTPEEDDITWTSDQRHGVIGSGKTLTITVKEFLDAGQYTCHKGGETLSHSHLLLHKKENGIWSTEILKNFKNKTFLKCEAPNYSGRFTCSWLVQRNMDLKFNIKSSSSSPDSRAVTCGMASLSAEKVTLDQRDYEKYSVSCQEDVTCPTAEETLPIELALEARQQNKYENYSTSFFIRDIIKPDPPKNLQMKPLKNSQVEVSWEYPDSWSTPHSYFSLKFFVRIQRKKEKMKETEEGCNQKGAFLVEKTSTEVQCKGGNVCVQAQDRYYNSSCSKWACVPCRVRS"}}, "biological_target": "T1, IL-23p19 (mouse (endogenous in epidermis)) (UniProt Q9EQ14)", "T1 sequence": "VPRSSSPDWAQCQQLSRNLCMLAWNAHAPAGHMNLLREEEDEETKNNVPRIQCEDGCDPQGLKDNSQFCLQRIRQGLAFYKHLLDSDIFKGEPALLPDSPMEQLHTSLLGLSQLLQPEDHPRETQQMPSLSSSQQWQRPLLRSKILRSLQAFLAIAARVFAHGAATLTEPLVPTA", "test": "co-IP; epidermal cells of 7-8-week-old control and N-WASP ko mice lysed in RIPA buffer, lysate cleaned with Protein A agarose; precipitated with rat anti-mouse IL-23p19 and Protein A agarose; blots for IL-23p19 and IL-12p40", "note": "Results are given in words; binding and its absence hold for the method and conditions named. Binding seen in cells or lysates may run through a third protein. Some entries that bind do so weakly or less than the wild type."}
{"binder": "B1", "values": [{"measurement": "binding", "value": "binds"}]}
